By UniProt entry, the sequences of proteins in these tests, tags left out.
UniProt P49792: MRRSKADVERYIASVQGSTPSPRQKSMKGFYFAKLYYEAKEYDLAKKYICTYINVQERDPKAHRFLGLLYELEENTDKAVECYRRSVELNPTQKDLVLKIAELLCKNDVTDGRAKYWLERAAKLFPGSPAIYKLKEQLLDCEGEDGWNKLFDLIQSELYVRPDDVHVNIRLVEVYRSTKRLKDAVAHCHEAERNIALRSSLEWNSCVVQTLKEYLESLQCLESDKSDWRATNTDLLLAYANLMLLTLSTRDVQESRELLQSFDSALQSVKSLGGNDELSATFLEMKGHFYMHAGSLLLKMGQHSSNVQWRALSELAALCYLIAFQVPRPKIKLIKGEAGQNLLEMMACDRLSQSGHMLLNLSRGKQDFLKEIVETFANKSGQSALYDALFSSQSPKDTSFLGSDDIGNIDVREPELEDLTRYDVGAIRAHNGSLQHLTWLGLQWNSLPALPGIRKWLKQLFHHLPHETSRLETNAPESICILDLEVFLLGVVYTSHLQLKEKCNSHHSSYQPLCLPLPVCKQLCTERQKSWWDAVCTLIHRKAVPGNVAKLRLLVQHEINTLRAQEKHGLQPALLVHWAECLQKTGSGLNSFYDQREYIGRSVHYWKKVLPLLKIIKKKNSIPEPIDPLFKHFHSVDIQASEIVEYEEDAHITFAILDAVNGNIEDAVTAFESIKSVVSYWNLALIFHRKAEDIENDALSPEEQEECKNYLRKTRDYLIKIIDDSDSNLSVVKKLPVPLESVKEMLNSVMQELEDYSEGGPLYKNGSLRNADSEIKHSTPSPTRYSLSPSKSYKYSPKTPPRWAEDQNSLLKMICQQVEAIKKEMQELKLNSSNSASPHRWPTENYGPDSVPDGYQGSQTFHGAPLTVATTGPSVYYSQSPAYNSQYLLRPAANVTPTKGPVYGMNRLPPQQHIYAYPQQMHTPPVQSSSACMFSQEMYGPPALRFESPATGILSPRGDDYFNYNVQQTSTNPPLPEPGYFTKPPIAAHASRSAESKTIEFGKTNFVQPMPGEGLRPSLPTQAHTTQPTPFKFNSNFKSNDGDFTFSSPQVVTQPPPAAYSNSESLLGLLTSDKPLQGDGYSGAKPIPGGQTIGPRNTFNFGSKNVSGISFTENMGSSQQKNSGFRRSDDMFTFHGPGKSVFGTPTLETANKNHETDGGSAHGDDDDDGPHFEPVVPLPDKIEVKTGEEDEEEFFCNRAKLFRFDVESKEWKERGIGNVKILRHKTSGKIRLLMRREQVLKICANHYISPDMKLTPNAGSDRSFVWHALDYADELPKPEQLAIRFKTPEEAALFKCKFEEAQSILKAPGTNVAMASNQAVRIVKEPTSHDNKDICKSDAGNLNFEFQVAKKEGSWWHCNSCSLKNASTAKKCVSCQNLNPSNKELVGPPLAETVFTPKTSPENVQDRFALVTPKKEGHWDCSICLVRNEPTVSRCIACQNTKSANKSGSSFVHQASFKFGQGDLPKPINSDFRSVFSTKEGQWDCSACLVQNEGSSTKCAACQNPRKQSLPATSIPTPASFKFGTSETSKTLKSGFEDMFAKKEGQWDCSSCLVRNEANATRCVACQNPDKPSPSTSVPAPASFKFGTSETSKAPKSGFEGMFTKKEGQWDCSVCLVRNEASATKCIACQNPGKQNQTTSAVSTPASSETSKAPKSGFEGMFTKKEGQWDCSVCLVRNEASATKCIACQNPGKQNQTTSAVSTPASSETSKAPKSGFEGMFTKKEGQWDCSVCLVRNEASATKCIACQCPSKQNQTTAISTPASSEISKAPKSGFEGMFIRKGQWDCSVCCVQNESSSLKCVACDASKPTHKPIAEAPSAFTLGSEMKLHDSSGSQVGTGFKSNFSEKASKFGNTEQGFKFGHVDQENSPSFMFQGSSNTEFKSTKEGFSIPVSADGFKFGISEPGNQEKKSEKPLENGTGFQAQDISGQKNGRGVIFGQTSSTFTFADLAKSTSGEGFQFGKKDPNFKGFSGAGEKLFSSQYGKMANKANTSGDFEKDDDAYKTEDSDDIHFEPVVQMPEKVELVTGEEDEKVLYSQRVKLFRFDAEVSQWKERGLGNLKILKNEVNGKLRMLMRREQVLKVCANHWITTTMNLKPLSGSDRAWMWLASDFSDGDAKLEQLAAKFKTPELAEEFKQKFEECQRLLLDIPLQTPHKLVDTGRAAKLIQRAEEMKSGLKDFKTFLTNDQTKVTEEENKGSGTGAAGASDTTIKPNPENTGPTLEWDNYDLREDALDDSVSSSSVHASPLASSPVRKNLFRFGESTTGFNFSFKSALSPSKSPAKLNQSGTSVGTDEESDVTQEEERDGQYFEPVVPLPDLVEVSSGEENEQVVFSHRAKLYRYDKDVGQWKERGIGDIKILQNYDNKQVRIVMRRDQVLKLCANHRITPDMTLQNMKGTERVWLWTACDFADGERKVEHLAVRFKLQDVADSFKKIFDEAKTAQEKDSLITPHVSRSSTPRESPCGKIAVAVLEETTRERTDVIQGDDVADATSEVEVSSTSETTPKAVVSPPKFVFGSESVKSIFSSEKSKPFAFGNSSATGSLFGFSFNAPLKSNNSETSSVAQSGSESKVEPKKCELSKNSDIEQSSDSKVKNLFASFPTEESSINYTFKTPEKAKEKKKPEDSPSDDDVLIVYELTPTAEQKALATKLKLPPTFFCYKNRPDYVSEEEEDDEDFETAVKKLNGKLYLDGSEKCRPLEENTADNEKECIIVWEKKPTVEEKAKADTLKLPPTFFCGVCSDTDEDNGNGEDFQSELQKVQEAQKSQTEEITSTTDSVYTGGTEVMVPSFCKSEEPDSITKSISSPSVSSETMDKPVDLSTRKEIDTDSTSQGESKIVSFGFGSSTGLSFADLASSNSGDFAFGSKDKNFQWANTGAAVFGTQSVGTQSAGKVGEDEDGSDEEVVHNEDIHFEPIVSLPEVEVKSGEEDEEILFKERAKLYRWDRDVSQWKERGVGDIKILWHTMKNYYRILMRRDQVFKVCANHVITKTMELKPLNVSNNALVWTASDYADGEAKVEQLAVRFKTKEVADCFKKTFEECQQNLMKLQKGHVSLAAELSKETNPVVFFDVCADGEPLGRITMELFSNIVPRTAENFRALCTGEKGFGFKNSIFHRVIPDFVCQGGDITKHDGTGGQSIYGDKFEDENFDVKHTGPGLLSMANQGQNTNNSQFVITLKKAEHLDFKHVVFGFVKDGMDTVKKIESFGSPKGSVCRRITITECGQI
UniProt P62258: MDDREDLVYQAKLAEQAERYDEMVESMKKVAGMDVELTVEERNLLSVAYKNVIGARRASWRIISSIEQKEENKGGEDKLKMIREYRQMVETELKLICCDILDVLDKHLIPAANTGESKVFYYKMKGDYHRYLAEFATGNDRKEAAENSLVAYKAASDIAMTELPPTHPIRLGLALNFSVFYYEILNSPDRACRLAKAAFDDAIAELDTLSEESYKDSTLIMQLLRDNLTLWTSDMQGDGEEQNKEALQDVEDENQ
UniProt Q92973: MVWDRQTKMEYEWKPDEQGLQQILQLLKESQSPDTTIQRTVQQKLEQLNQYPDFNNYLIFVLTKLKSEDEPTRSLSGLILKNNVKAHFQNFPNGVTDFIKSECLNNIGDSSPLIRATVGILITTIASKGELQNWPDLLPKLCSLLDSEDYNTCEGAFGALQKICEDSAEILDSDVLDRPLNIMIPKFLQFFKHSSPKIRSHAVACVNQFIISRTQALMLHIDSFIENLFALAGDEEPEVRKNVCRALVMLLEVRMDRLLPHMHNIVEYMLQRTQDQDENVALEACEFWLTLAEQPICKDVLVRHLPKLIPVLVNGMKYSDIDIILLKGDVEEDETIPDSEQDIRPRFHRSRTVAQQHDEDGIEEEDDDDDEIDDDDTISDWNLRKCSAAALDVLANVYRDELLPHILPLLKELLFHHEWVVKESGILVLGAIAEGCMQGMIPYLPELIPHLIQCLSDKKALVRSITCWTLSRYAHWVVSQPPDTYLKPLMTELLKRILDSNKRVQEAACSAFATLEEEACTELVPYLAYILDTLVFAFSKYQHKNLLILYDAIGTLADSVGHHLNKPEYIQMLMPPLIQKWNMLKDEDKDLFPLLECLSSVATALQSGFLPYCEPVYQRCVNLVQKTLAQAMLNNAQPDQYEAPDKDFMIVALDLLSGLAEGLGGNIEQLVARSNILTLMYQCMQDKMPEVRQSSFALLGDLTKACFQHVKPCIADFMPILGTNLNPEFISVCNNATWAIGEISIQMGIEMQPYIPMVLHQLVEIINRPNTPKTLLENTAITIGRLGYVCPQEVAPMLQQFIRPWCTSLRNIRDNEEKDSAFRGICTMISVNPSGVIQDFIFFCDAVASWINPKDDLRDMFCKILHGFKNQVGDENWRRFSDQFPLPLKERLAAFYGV
UniProt Q09028: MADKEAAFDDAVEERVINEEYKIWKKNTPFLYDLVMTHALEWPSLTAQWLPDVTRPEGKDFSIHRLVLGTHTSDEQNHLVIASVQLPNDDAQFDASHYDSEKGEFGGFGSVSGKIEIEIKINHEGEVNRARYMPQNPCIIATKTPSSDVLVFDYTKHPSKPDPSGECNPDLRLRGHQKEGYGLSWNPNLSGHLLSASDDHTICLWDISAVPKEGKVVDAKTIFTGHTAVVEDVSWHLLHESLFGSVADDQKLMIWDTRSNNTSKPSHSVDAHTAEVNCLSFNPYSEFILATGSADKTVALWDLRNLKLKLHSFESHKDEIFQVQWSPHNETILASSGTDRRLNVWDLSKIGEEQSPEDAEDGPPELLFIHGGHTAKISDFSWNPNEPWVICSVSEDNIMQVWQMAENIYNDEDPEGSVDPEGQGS
UniProt Q96QT6: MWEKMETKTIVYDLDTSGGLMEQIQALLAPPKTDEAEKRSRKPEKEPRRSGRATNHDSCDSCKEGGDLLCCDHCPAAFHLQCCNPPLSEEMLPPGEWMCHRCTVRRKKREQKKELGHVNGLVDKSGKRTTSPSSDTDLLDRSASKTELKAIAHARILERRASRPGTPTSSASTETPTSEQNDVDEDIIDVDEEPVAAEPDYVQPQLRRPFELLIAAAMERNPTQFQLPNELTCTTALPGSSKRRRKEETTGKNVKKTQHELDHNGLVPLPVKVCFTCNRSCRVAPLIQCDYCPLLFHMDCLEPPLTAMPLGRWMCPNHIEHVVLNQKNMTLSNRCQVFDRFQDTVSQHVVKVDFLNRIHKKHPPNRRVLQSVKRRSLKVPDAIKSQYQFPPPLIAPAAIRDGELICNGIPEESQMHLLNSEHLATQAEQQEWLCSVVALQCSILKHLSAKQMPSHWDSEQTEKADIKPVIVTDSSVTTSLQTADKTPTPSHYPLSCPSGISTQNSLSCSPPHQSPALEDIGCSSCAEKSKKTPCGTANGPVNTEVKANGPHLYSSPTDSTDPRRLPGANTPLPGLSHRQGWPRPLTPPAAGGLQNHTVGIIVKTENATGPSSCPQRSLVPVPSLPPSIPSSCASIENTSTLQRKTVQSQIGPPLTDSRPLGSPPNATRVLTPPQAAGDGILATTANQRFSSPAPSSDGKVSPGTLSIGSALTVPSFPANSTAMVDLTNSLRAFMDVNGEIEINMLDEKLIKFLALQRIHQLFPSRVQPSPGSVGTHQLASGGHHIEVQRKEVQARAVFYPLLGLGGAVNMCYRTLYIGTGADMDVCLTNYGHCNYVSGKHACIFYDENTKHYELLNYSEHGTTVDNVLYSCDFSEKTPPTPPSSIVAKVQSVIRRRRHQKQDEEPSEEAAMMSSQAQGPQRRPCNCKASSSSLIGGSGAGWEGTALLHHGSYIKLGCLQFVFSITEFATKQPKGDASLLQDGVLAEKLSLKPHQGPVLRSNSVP
UniProt P31946: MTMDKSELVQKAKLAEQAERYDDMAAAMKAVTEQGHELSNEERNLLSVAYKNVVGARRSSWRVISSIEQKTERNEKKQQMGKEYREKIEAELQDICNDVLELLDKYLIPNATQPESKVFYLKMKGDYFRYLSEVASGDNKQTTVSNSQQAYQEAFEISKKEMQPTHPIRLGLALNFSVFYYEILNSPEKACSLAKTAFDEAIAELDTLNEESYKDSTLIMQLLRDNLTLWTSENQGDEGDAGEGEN
UniProt P63104: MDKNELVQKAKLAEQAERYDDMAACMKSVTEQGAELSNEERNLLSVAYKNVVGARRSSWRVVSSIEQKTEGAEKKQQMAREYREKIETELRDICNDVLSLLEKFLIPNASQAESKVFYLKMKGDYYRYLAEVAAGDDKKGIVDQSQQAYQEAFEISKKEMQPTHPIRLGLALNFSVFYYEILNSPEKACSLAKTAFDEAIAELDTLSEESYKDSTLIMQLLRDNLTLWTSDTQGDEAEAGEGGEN

In publication PMC11009412, “Pathogenic mutations of human phosphorylation sites affect protein–protein interactions” (Nature Communications, 2024):

Assays:
[1] = biological target: T1, GATAD1 S102P peptide on cellulose membrane (PRISMA) (human) (UniProt Q8WUU5); test: affinity purification with mass spectrometry; PRISMA alanine scanning: 15 GATAD1-derived peptides on a cellulose membrane in triplicates, pull-down from HEK-293T lysate, label-free quantification, one-way ANOVA; only the target purified
T1 sequence (peptide): LRNTKYKPAPAAEKK

[2] = biological target: T2, GATAD1 aspartic acid mutant (S102D) peptide on cellulose membrane (alanine scanning) (human) (UniProt Q8WUU5); test: as above
T2 sequence (peptide): LRNTKYKDAPAAEKK

[3] = biological target: T3, BirA*-FLAG-GATAD1 wild-type (WT) (human) (UniProt Q8WUU5); test: affinity purification with mass spectrometry; FLAG immunoprecipitation (ANTI-FLAG M2 magnetic beads, 2 h) of BirA*-FLAG-GATAD1 variants from tetracycline-induced Flp-In-293 T-REx lysate (50 mM Tris HCl pH 7.4, 150 mM NaCl, 1 mM EDTA, 1% Triton X-100); control non-induced cells; label-free, triplicates
T3 sequence: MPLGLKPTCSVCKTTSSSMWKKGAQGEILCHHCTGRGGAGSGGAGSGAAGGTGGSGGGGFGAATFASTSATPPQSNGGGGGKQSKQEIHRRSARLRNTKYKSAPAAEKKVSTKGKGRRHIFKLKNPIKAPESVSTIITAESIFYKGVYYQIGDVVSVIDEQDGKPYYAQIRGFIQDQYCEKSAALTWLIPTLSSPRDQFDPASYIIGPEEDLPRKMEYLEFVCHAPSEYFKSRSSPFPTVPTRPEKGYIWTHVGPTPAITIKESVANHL

[4] = biological target: T4, BirA*-FLAG-GATAD1 S102P (human) (UniProt Q8WUU5); test: as above
T4 sequence: T3 sequence with S102P

[5] = biological target: T5, BirA*-FLAG-GATAD1 S102A (human) (UniProt Q8WUU5); test: as above
T5 sequence: T3 sequence with S102A

[6] = biological target: T6, BirA*-FLAG-GATAD1 S102D (human) (UniProt Q8WUU5); test: as above
T6 sequence: T3 sequence with S102D

[7] = biological target: T7, GATAD1 pS102 peptide, position -1 to alanine (alanine scanning) (human) (UniProt Q8WUU5); test: affinity purification with mass spectrometry; PRISMA alanine scanning: 15 GATAD1-derived peptides on a cellulose membrane in triplicates, pull-down from HEK-293T lysate, label-free quantification, one-way ANOVA; only the target purified
T7 sequence (peptide, phosphoserine at 102): LRNTKYASAPAAEKK

[8] = biological target: T8, GATAD1 pS102 peptide, proline in position +2 to alanine (alanine scanning) (human) (UniProt Q8WUU5); test: as above
T8 sequence (peptide, phosphoserine at 102): LRNTKYKSAAAAEKK

[9] = biological target: T9, GATAD1 pS102 peptide, position -4 to alanine (alanine scanning) (human) (UniProt Q8WUU5); test: as above
T9 sequence (peptide, phosphoserine at 102): LRNAKYKSAPAAEKK

[10] = biological target: T10, GATAD1 pS102 peptide, position -3 to alanine (alanine scanning) (human) (UniProt Q8WUU5); test: as above
T10 sequence (peptide, phosphoserine at 102): LRNTAYKSAPAAEKK

[11] = biological target: T11, GATAD1 pS102 peptide, position +3 alanine to glycine (alanine scanning) (human) (UniProt Q8WUU5); test: as above
T11 sequence (peptide, phosphoserine at 102): LRNTKYKSAPGAEKK

[12] = biological target: T12, GATAD1 pS102 peptide, position -5 to alanine (alanine scanning) (human) (UniProt Q8WUU5); test: as above
T12 sequence (peptide, phosphoserine at 102): LRATKYKSAPAAEKK

[13] = biological target: T13, GATAD1 pS102 peptide, position +4 alanine to glycine (alanine scanning) (human) (UniProt Q8WUU5); test: as above
T13 sequence (peptide, phosphoserine at 102): LRNTKYKSAPAGEKK

[14] = biological target: T14, GATAD1 pS102 peptide, position +5 to alanine (alanine scanning) (human) (UniProt Q8WUU5); test: as above
T14 sequence (peptide, phosphoserine at 102): LRNTKYKSAPAAAKK

[15] = biological target: T15, GATAD1 pS102 peptide, position -2 to alanine (alanine scanning) (human) (UniProt Q8WUU5); test: as above
T15 sequence (peptide, phosphoserine at 102): LRNTKAKSAPAAEKK

[16] = biological target: T3, BirA*-FLAG-GATAD1 wild-type (WT) (human); test: proximity labelling; BioID: BirA*-FLAG-GATAD1 variants in Flp-In-293 cells, tetracycline 24 h, 50 μM biotin overnight, streptavidin-sepharose enrichment, SILAC with label swap

Substance	binding [1]	binding [2]	binding [3]	binding [4]	binding [5]	binding [6]	binding [7]	binding [8]	binding [9]	binding [10]	binding [11]	binding [12]	binding [13]	binding [14]	binding [15]	binding [16]
RANBP2 (from UniProt P49792 1-3224)	binds	binds														
14-3-3 epsilon (endogenous) (from UniProt P62258 1-255)	no binding	no binding	no binding	no binding	no binding	no binding	binds	binds	binds	binds	binds	binds	binds	binds	binds	
IPO5 (from UniProt O00410 1-1097)	binds	binds														
TNPO1 (from UniProt Q92973 1-898)	binds	binds														
RBBP4 (from UniProt Q09028 1-425)			binds	binds	binds	binds										
PHF12 (from UniProt Q96QT6 1-1004)			binds	binds	binds	binds										binds
14-3-3 beta/alpha (from UniProt P31946 1-246)	no binding	no binding	no binding	no binding	no binding	no binding	binds	binds	binds	binds	binds	binds	binds	binds	binds	
14-3-3 zeta (from UniProt P63104 1-245)	no binding	no binding	no binding	no binding	no binding	no binding	binds	binds	binds	binds	binds	binds	binds	binds	binds	

Residue numbers refer to the chain shown, from its start. These are yes or no findings as the source states them, for the method shown. Binding seen in cells or lysates may run through a third protein. These calls come from enrichment with a bait or labelling near it, and not all partners need be listed. For part of these data: No binding means not detected with the bait. For part of these data: Where a sequence is shown, tags or fusion partners need not be part of it.
